Source: PMC11417767
No constants are given. Whether binding was seen depends on the method and setting. Binding seen in cells or lysates may run through a third protein. Some binding calls cover weakened binding; strength is not graded here.

Molecular target: T1, Fas-apoptotic inhibitory molecule 2 (FAIM2), rat retina (rat (endogenous in rat retina)) (UniProt O88407)
T1 sequence: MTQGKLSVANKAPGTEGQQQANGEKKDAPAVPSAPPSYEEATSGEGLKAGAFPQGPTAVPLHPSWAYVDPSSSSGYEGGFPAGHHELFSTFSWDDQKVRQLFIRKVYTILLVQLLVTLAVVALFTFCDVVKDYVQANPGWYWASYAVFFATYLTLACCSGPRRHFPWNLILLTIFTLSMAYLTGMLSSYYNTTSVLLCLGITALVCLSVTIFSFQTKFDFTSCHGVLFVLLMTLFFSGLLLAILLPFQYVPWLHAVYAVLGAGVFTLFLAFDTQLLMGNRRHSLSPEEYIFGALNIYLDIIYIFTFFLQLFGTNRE
Experiment: co-IP; FAIM2 antibody (OriGene) on Dynabeads protein G, 500 μg of lysate of attached or detached rat retina, 4 °C overnight; immunoblot for αA- or αB-crystallin

B1: αB-crystallin (HSPB5), rat retina (protein, UniProt P23928 1-175)
chain: MDIAIHHPWIRRPFFPFHSPSRLFDQFFGEHLLESDLFSTATSLSPFYLRPPSFLRAPSWIDTGLSEMRMEKDRFSVNLDVKHFSPEELKVKVLGDVIEVHGKHEERQDEHGFISREFHRKYRIPADVDPLTITSSLSSDGVLTVNGPRKQASGPERTIPITREEKPAVTAAPKK
binding: binds
